From PubChem BioAssay AID540275 (National Center for Advancing Translational Sciences (NCATS), 2011)
Among all 320,000 compounds or so, about 620 (0.19%) were called active. This list was built around the results that the source calls inconclusive (neither active nor inactive); the mix of calls is not that of the screen. No stated cut-off is given here; in the data, active means activation above about 80%; inconclusive means between about 30% and that limit; inactive means weaker than that.

The chains behind the UniProt entries cited, without tags or fusion partners.
UniProt Q8NER1, whole entry, looked up: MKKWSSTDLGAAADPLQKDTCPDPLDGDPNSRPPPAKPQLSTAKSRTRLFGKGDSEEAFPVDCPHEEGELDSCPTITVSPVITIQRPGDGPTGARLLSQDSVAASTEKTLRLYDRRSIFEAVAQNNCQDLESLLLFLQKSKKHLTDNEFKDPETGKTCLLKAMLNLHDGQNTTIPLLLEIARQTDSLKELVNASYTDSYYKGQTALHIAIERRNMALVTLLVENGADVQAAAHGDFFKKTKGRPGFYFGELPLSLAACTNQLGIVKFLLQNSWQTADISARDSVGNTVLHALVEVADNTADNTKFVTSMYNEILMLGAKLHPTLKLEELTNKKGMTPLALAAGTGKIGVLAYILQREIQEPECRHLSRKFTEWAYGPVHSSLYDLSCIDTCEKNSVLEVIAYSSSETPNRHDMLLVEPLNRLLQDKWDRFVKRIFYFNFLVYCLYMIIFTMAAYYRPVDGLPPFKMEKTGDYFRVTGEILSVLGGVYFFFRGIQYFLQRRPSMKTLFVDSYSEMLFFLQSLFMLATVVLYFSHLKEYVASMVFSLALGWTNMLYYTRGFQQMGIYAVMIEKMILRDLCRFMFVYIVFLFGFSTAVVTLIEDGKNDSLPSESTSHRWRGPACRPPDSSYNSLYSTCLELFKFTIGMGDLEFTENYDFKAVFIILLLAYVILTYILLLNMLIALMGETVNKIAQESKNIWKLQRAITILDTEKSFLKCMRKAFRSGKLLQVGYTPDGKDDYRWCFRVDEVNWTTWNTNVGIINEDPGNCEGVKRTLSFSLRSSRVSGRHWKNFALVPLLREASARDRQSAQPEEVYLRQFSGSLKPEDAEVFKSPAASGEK

Biological target: Transient receptor potential cation channel subfamily V member 1 (Homo sapiens) (UniProt Q8NER1)
Assay: HTS Assay for Compounds that Act as Agonists of the Vanilloid Receptor 1; further: 0% is about no effect
Details: TRPV1-expressing cells, Fluo-8 calcium influx, agonist mode; at 8.33 µM, stronger effect = higher value
In short: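 Cells expressing TRPV1 were dye-loaded with Fluo-8 and read kinetically: 10 s baseline, 3 min after compound (agonist portion), then 2 min after EC20 capsaicin (allosteric enhancer portion). Calcium-bound dye fluorescence at 480/520 nm.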

Row | SMILES | activation
1 | CC1CN(C(=O)Nc2ccc3snnc3c2)c2ccccc21 (configuration not stated) | inconclusive: 44.5%
2 | CCN(C(=O)Cc1cccs1)c1nnc(-c2cc(OC)c(OC)c(OC)c2)s1 | inactive: 18.5%
3 | O=C(NCc1cccc2ccccc12)Nc1ccccc1 | inconclusive: 77.2%
4 | O=C(Nc1ccc2c(c1)OCO2)c1cnc(Cl)c(Cl)c1 | inconclusive: 53.8%
5 | Cc1cc(C(=O)NN=C2CCCCCC2)c(C)o1 | inactive: 12.4%
6 | O=C(N/N=C/c1ccc([N+](=O)[O-])cc1)c1c[nH]c2ccccc12 | inconclusive: 59.2%
7 | CCN(CC)CCNc1nc(-n2nc(C)cc2C)nc2sc3c(c12)CC(C)(C)OC3 | inactive: 9.3%
8 | CCC(C)c1ccc(NC(=O)CSc2nncn2N)cc1 (configuration not stated) | inactive: 6%
9 | O=C(CCCC(=O)N1CCN(c2cccc(Cl)c2)CC1)c1ccccc1 | inconclusive: 35%
10 | COc1ccc(CCC(=O)Nc2nc(-c3ccncc3)cs2)cc1 | inactive: 2.08%
11 | O=C(COC(=O)c1cc(S(=O)(=O)NCc2ccccc2)ccc1O)NCc1ccccc1 | inactive: 0.753%
12 | CCN(c1ccccc1)S(=O)(=O)c1ccc(Oc2ccc([N+](=O)[O-])cc2)nc1 | inconclusive: 37.7%
13 | O=c1c(O)c(-c2ccc3c(c2)OCO3)oc2ccccc12 | inactive: 2.88%
14 | CCCCn1c(=N)n(CC(=O)C(C)(C)C)c2ccccc21 | inconclusive: 44.1%
15 | Cn1c(N)c(C(=O)COC(=O)/C=C/c2cccc(F)c2)c(=O)n(C)c1=O | inactive: -0.868%
16 | O=C(NCCCN1CCCC1)c1ccc(CS(=O)(=O)c2ccc(Cl)cc2)o1 | inactive: -0.333%
17 | COc1ccc(OCC(=O)Nc2ccccc2Cl)cc1 | inconclusive: 30.7%
18 | O=C(N/N=C\c1c(O)ccc2ccccc12)c1ccc(O)cc1 | inconclusive: 67.7%
19 | CC(Oc1cc(Cl)ccc1Cl)C(=O)N/N=C\c1ccnn1C (configuration not stated) | inconclusive: 37.7%

Three of these compounds, reformatted:
Row,SMILES,activation
8,CCC(C)c1ccc(NC(=O)CSc2nncn2N)cc1 (configuration not stated),inactive: 6%
12,CCN(c1ccccc1)S(=O)(=O)c1ccc(Oc2ccc([N+](=O)[O-])cc2)nc1,inconclusive: 37.7%
15,Cn1c(N)c(C(=O)COC(=O)/C=C/c2cccc(F)c2)c(=O)n(C)c1=O,inactive: -0.868%

By substructure: the compounds so far containing a nitro group on carbon
Row | SMILES | activation
6 | O=C(N/N=C/c1ccc([N+](=O)[O-])cc1)c1c[nH]c2ccccc12 | inconclusive: 59.2%
12 | CCN(c1ccccc1)S(=O)(=O)c1ccc(Oc2ccc([N+](=O)[O-])cc2)nc1 | inconclusive: 37.7%

(further entries)

Row | SMILES | activation
20 | Cc1cc(NC(=O)C(=O)c2cn(C)c3ccccc23)no1 | inconclusive: 38.9%
21 | CC(=O)c1cc2c(cc1NC(=O)CSc1nc3ccccc3o1)OCO2 | inactive: 2.43%
22 | N/C(=N\OC(=O)c1ccc(Br)cc1)c1cccc([N+](=O)[O-])c1 | inconclusive: 62.3%
23 | COc1cccc(CN2CC(C(=O)NCCSc3nnnn3C)CCC2=O)c1 (configuration not stated) | inactive: -5.85%
24 | Cc1ccc(NC(=O)COC(=O)C2CCN(c3ccc(C(F)(F)F)cn3)CC2)cc1 | inconclusive: 33%
25 | COc1ccc(N(C(C)C(=O)N/N=C(\C)C(C)(C)C)S(C)(=O)=O)cc1 (configuration not stated) | inactive: 5.1%
26 | O=C(CC1(CC2=NS(=O)(=O)c3ccccc3N2)CCCC1)NCCc1ccccc1 | inconclusive: 32.4%
27 | CCOC(=O)C1=C(N)n2c(s/c(=C\c3ccco3)c2=O)=C(C(=O)OCC)C1c1ccco1 (configuration not stated) | inconclusive: 47.4%
28 | COc1ccc(NC(=O)CS(=O)c2cccc(C(F)(F)F)c2)cc1 (configuration not stated) | inactive: 11.5%
29 | CCn1c(CSc2nc3ccccc3s2)nnc1SCC(=O)c1ccc(O)c(O)c1 | inconclusive: 49.5%
30 | CCOC(=O)C1(Cc2ccccc2C)CCCN(C(=O)c2ccc(CSC)o2)C1 (configuration not stated) | inconclusive: 56.9%
31 | CCCCc1ccc(N=N/C(C(=O)Nc2ccc(NC(C)=O)cc2OC)=C(/C)O)cc1 | inactive: -0.326%
32 | O=C(CCc1ccccc1)NCC1(c2ccccc2)CCCC1 | inconclusive: 33%
33 | Cc1cc2oc(C(=O)N(Cc3ccc(N(C)C)cc3)CC3CCCO3)c(C)c2cc1C (configuration not stated) | inconclusive: 39.1%
34 | CCN1CCc2c(sc(NC(=O)CSc3ccccc3)c2-c2nc3ccccc3s2)C1 | inconclusive: 69.3%
35 | COc1cccc(C(=O)Nc2nnc(-c3ccccc3)s2)c1OC | inconclusive: 58.4%
36 | CCN1CNC(=S)N(c2cccc(C)c2C)C1 | inactive: -0.732%
37 | COc1ccc(C)cc1NC(=O)C(OC(=O)c1cnc(C)cn1)c1ccccc1 (configuration not stated) | inactive: 11.1%
38 | Cc1sc(NC(=O)c2ccco2)c(CN2CCN(c3ccccn3)CC2)c1C | inconclusive: 47.4%

Row | SMILES | activation
39 | CC(NC(=O)Nc1ccccc1)c1ccccc1 (configuration not stated) | inconclusive: 34.9%
40 | Cc1cc(N)n2nc(-c3ccccc3)cc2n1 | inactive: 1.02%
41 | O=C(Nc1ccc(N2CCOCC2)c(Cl)c1)c1c(F)c(F)c(F)c(F)c1F | inconclusive: 40.2%
42 | Nc1nc(-c2cccc(Br)c2)cs1 | inactive: 0.757%
43 | CCOC(=O)N1CCN(c2nc(C(F)(F)F)nc3c(C)cc(C)cc23)CC1 | inconclusive: 48.5%
44 | COCCn1c(SCC(=O)c2[nH]c(C)c(C(C)=O)c2C)nc2ccccc2c1=O | inconclusive: 37.1%
45 | COc1ccccc1CNC(=O)c1cn(C)c2ccc(S(=O)(=O)N3CCCC3)cc2c1=O | inconclusive: 30.6%
46 | CCOC(=O)c1sc2ncc([N+](=O)[O-])cc2c1N | inactive: 7.82%
47 | CC(=O)c1ccc(OCc2cc(C(=O)N3CCC(c4ccncc4)CC3)no2)cc1 | inconclusive: 43.1%
48 | CC(=O)NC12CC3CC(C1)CC(C(=O)N1CCN(S(=O)(=O)c4ccc(Cl)s4)CC1)(C3)C2 | inconclusive: 36.8%
49 | O=C(NC1CCCCC1)C(c1cccnc1)N(CCc1ccccc1)C(=O)Cc1cccs1 (configuration not stated) | inconclusive: 47%
50 | CC(=O)n1c2ccccc2c2ccccc21 | inactive: -1.43%
51 | COc1ccc(/C=N\NC(=O)COc2ccc(C(C)(C)C)cc2)cc1Cn1nc(C)cc1C | inconclusive: 55.3%
52 | O=C(c1cccc(S(=O)(=O)N2CCOCC2)c1)N1CCC(Cc2ccccc2)CC1 | inconclusive: 36.8%
53 | CCOc1ccc(-c2nnc3sc(COc4ccc(Cl)cc4)nn23)cc1 | inconclusive: 30.5%
54 | CN(C)c1ccc(NC(=O)c2ccc(N3CCOCC3)nc2)cc1 | inconclusive: 55.5%
55 | CCOC(=O)CN(C(=O)CSc1nnc(C)n1-c1ccccc1)c1ccccc1 | inconclusive: 37.6%
56 | O=C(COC(=O)CC1CCCC1)Nc1cccc(F)c1 | inconclusive: 48.4%
57 | CSc1nnc(SCC(=O)N(C)c2c(N)n(Cc3ccccc3)c(=O)[nH]c2=O)s1 | inactive: 0.261%
